Results reported in patent EP2698383B1, “Detection of synthetic Cannabinoids” (priority 2012, dated 2014).

Tested on: Antibody 4.1
Assay type: binding, sheep
Conditions: tracer 1 (C7)
Protocol: The wells of an enhanced binding 96 well polystyrene microtiter plate were coated with IgG fraction of antiserum (Antibody 4.1 or antibody 4.2) raised to Immunogen 4 in separate host animals, diluted in 10mM Tris, pH8.5 (125µl/well). The appropriate antibody coating dilution was determined using standard ELISA checkerboard techniques. The plate was incubated overnight at 4°C, washed 4 times over 10 minutes with Tris buffered saline containing Tween 20 (TBST) and tapped dry.
Standard solutions of CP47,497 -C8 were prepared in TBST at 0, 2.5, 5, 10, 20, 40, 80 and 160ng/ml for Antibody 4.1, and at 0, 5, 10, 20, 40, 80, 160 and 320ng/ml for Antibody 4.2, and 50µl of each was added to the appropriate wells. 75µl of conjugate (Hapten 1-HRP - tracer 1 - see Figure 4) diluted in Tris buffer (pH 7.2) containing EDTA, D-mannitol, sucrose, thimerosal and BSA, was added to each of the wells. The appropriate dilution of conjugate was also determined using standard ELISA checkerboard techniques. The plate was incubated at 25°C for 1 hour. Excess unbound conjugate was removed by washing 6 times over a 10 minute period with TBST. 125µl of tetramethylbenzidine (TMB) substrate solution was added to each well of the plate that was then incubated for 20 minutes in the dark at room temperature. The reaction was terminated by addition of 125µl 0.2M H2SO4 to each well. The absorbance was then measured at 450nm using a microtiter plate reader.
In order to determine the specificity of the competitive ELISAs, standard solutions of a range of structurally similar compounds were prepared in TBST. Using the calibration curves generated and employing a single level of cross reactants (100ng/ml), these were used to determine the cross-reactivity of each immunoassay with these substances. The results of this study are presented in Table 2, as %B/B0, employing antisera raised against Immunogen 2b (C8), tracer 1 (C7) and (±)-CP-47,497 (C8 homologue) as standard.

CCCCCCCC(C)(C)c1ccc(C2CCCC(O)C2)c(O)c1 (racemic) [(±)-CP-47,497 (C8 homologue)]
A450 (standard 2.5 ng/ml): 1.529 | A450 (standard 5 ng/ml): 1.339 | A450 (standard 10 ng/ml): 1.117 | A450 (standard 20 ng/ml): 0.945 | A450 (standard 40 ng/ml): 0.808 | A450 (standard 80 ng/ml): 0.700 | A450 (standard 160 ng/ml): 0.641

Like-named read-outs stand apart in the source and are kept apart here.
